# Primary screen of a compound library

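Phenotypic screen: M. tuberculosis growth, glucose 7H9 medium, 3 days; the read-out is not stated. Concentration: 50 µM. Direction is inferred from retests: higher values go with more growth inhibition. About 69,000 compounds were tested under these conditions; 1.1% (about 760) showed 50% or more at least once.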

The filed quantity is “Percent Effect” (%). The record does not define 0% and 100%; most values in the screen are far below 50% and negative numbers occur (in some assays of this library far below -100). Compounds were drawn at random from those tested, without regard to their results. Two or more numbers in one place are separate tests of the same structure; such repeats can differ widely.

SMILES,percent effect
CCCc1nc(C)c(CNc2nc(C)nc3onc(C)c23)s1,-10.19
Cc1nnc2ccc(OCCNS(=O)(=O)c3cccs3)nn12,9.56
Cc1nn(C)c(C)c1C1CCCN1C(=O)c1ccc(C(N)=O)cn1 (stereo not drawn),14.13
Cc1ccc(C(=O)N(C)Cc2ccc(Br)s2)c(=O)[nH]1,13.03
Cn1nc(CN2CCCCC2)c2c1CN(C(=O)Nc1cccc(F)c1)C2,-1.575 & -27.79
CN(CCCc1nccn1C)c1nccc(N2CCC(O)C2)n1 (stereo not drawn),-9.049 & -5.672
CNS(=O)(=O)c1ccc(CNC(=O)c2cccc(C)n2)cc1,-11.87
COc1ccc(C(=O)NCCCC2(C3OCCO3)CCOCC2)cc1,11.92 & 111.8
CC(C)c1nc(NC(=O)CCCn2cccc2)n(C)n1,-0.08014
Cc1cccc(O[C@H]2COCCN(Cc3sc(C)nc3C)C2)n1,-24.75 & -10.54
COc1cc2c(cc1C(=O)N1CC(c3ccncc3)C1)CCC2,-20.03
CC(Sc1nc(N)cc(N)n1)c1nc(C(C)(C)C)no1 (stereo not drawn),-17.33
O=C(O)C(F)(F)F.O=C(O)C(F)(F)F.[H][C@@]12CCN(Cc3cccnc3)C[C@]1(C(=O)N1CCCO1)CCO2,11.3
Cc1ccc(CN2CCOCC3(CCN(Cc4cccs4)C3)C2)o1.O=C(O)C(F)(F)F.O=C(O)C(F)(F)F (stereo not drawn),-9.336
Cc1nc(C(C)(C)C)sc1C(=O)NCCn1ccnc1,-15.49
O=C(CC1CC1)N1CCN(Cc2ccncc2)c2ncccc2C1.O=C(O)C(F)(F)F.O=C(O)C(F)(F)F,10.8
Cl.Cn1ccnc1N1CCN(C(=O)Cc2ccccc2)CC1,-5.326
CN1CCN(Cc2ccc(Cl)cc2)CC1C(=O)O (stereo not drawn),-2.776
Cc1ccccc1CN1CCN(Cc2nccn2C)CC1,18.41
[H][C@@]12CCCN1C[C@@H](CCSC)N(Cc1cn(CC)nc1C)C2,19.63
CC(C)C(=O)N1CCCC(Cc2ccccn2)C1 (stereo not drawn),-7.709
CC(C)n1nnc(CC(=O)NCC2(c3ccccc3F)CCCC2)n1,-25.92
O=C(CCN1CCNCC1)N1CCC2(CC1)c1ccccc1CC2O (stereo not drawn),-14.59
Cc1ccccc1-c1noc(CN2CCC(c3ccn[nH]3)CC2)n1,-0.7841
COc1ccc(N2CCCC3(C2)CN(c2nncs2)CCO3)cc1 (stereo not drawn),-0.6765 & 17.27
O=C(Nc1ccc2ncsc2c1)N1CCCN([C@H]2COC[C@@H]2O)CC1,-22.96
O=C(NCCCOCC1CC1)Nc1ccc(F)cc1,-3.873
O=C(c1cccs1)N1CCCC(c2cc(C(F)F)n3ncnc3n2)C1 (stereo not drawn),4.746
Cl.Cl.[H][C@@]12CN(CCc3ccccc3)C[C@]1([H])C2CN (stereo partly drawn),-25.09
C[C@@H]1CN(C(=O)CSc2nncn2C)C[C@@]1(O)C1CC1,22.73
COCCN1CCC(C)(c2cc(O)[nH]n2)CC1,-10.1
CC(C)Sc1ccc(C(C)NC(=O)CNS(C)(=O)=O)cc1 (stereo not drawn),-9.085
Cc1nnc(NCc2cccnc2OCC(F)(F)F)c(C#N)c1C,14.62
CC(C)N(C)CC(=O)NCC(O)c1cc2ccccc2s1 (stereo not drawn),-9.789
C[C@@H]1CN(CC(C)(C)N2CCOCC2)C[C@@]1(O)C1CC1,2.142
CC(C)OCCOCc1cccc(NC(=O)N2CCCC(O)C2)c1 (stereo not drawn),3.81
Cc1cc(C)nc(N2CCC(c3ccnc(N(C)C)n3)CC2)n1,3.847
Cc1nc2ccccc2c(=O)n1CCC(=O)N1CCCCCC1,18.38
CN1CCc2ncc(CNC(=O)c3cccn3C)n2CC1.O=C(O)C(F)(F)F,4.121 & 32.36
CNC(=O)CN1CCC2(CCCN(CC3CCOC3)C2)CC1.O=C(O)C(F)(F)F.O=C(O)C(F)(F)F (stereo not drawn),35.75
O=S(=O)(CC1CCCCO1)Nc1cnn(CC(F)F)c1 (stereo not drawn),4.523
Cc1cc(C)n(C2CCCN(C(=O)COCC(F)(F)F)C2)n1 (stereo not drawn),-24.96
Cc1nc(C2CCCN(C(=O)c3ccc(OCC4CC4)cc3)C2)no1 (stereo not drawn),15.54
c1ccc(CN2CCC(CCNc3ncnc4c3CCNCC4)C2)cc1 (stereo not drawn),35.11
CCc1noc(CN(CCS(C)(=O)=O)C(C)(C)C)n1,-19.32
CC(C)n1ccnc1C1CCN(C(=O)c2ccccn2)CC1,-21.68
FC(F)(F)Sc1ccccc1NCc1nc(C2CC2)no1,52.77 & 53.47
CC(C)=CCCC1(C)C=Cc2c(cc(C)n(CC(=O)O)c2=O)O1 (stereo not drawn),3.388
Cc1cc(C2CCCCCN2Cc2cn(C)nc2C)no1 (stereo not drawn),22.25
CC(C)Cc1ncc2c(n1)CN(C(=O)c1ccc(CN3CCCC3)o1)C2,4.194
CC(C)(NC(=O)Cc1ccccc1F)C(C)(C)C(=O)O,9.455
O=C(OCc1ccccc1)C1CCCN1Cc1nc(C2CC2)no1 (stereo not drawn),49.59 & 28.13
O=C(O)C(F)(F)F.O=C(O)C(F)(F)F.[H][C@@]12COC[C@]1(C(=O)NCc1ccccn1)CN(Cc1cnn(C)c1)C2,12.75
Cc1noc(CN(Cc2cccs2)C2CC2)n1,26.99
COC(=O)c1cccc(C(=O)N2CCN(c3cccc(C)c3C)CC2)n1,34.88
CC(C)COc1cccc(-c2nc3c([nH]2)CCNC3)c1,3.619
[H][C@@]12CC(=O)N(CC)[C@@]1([H])CCN2S(=O)(=O)Cc1ccc(C)cc1,-40.35
O=c1n(CCSCc2ccccc2Cl)nc2ccccn12,48.26
O=C(O)C(F)(F)F.O=C(O)C(F)(F)F.c1ccc(CNCC2Cn3nnc(-c4ccncc4)c3CO2)nc1 (stereo not drawn),16.94 & -2.303
CN(Cc1cccs1)C(=O)Cn1cc(NC(=O)C(C)(C)C)cn1,20.27
Cc1ccc(F)c(C(=O)NC2CCC(N3C(=O)CCC3=O)CC2)c1 (stereo not drawn),-22.32
Cn1cc(C[C@H]2[C@H](O)CCN2C(=O)C2CCOCC2)cn1,14.17 & -6.121
Cc1nc(C)n(CC2CCCN(Cc3cn4c(C)cccc4n3)C2)n1 (stereo not drawn),14.47
CC(C)NC(=O)[C@@H]1CN(C(=O)C2CC2)C[C@]12Cc1ccccc1C(=O)N2,0.8615
CN(C)c1ccc(C(=O)N2CCCC(n3cccn3)C2)nn1 (stereo not drawn),13.01
Cl.Cl.O=C(NCc1cncc2c1CCN(Cc1ccoc1)C2)C1CC1,16.43 & 2.973
CC(C)CNC(=O)Cc1cnc(-n2cccc2)s1,2.042
O=C(NCCc1cccnc1)NC1CCOC2(CCCCC2)C1 (stereo not drawn),-7.655 & -3.204
Cc1cc(C(=O)N(C)CCN(C)C(=O)OC(C)(C)C)oc1C,-2.717
CNCC(=O)N1CCCC1c1cncc(Oc2ccc(F)cc2)n1.Cl (stereo not drawn),23.36

Data taken from ChEMBL document CHEMBL3988442, “University of Dundee, Small-Polar-MMV Screening Library” (2021).